Some of these results come from one statement about several compounds together.
Assays:
Assay type in all cases: in vivo
[1] = system: Megoura viciae; assay: Vetch aphid (Megoura viciae) contact or systemic, broad bean leaf disks; conditions: 2500 ppm; after 5 days
Procedure: For evaluating control of vetch aphid (Megoura viciae) through contact or systemic means the test unit consisted of 24-well-microtiter plates containing broad bean leaf disks.
The compounds were formulated using a solution containing 75% v/v water and 25% v/v DMSO. Different concentrations of formulated compounds were sprayed onto the leaf disks at 2.5 μl, using a custom built micro atomizer, at two replications. After application, the leaf disks were air-dried and 5-8 adult aphids placed on the leaf disks inside the microtiter plate wells. The aphids were then allowed to suck on the treated leaf disks and incubated at about 23±1° C. and about 50±5% relative humidity for 5 days. Aphid mortality and fecundity was then visually assessed.

[2] = system: dichromothrips corbetti; assay: Orchid thrips (dichromothrips corbetti) floral-immersion; conditions: 300 ppm; after 4 days
Procedure: Dichromothrips corbetti adults used for bioassay were obtained from a colony maintained continuously under laboratory conditions. For testing purposes, the test compound was diluted to a concentration of 300 ppm (wt compound: vol diluent) in a 1:1 mixture of acetone:water (vol:vol), plus 0.01% vol/vol Kinetic® surfactant.
Thrips potency of each compound was evaluated by using a floral-immersion technique. Plastic petri dishes were used as test arenas. All petals of individual, intact orchid flowers were dipped into treatment solution and allowed to dry. Treated flowers were placed into individual petri dishes along with 10-15 adult thrips. The petri dishes were then covered with lids. All test arenas were held under continuous light and a temperature of about 28° C. for duration of the assay. After 4 days, the numbers of live thrips were counted on each flower, and along inner walls of each petri dish. The level of thrips mortality was extrapolated from pre-treatment thrips numbers.

[3] = system: aphis craccivora; assay: Cowpea aphid (aphis craccivora), sprayed potted cowpea plants; conditions: 300 ppm; population reduction assessed after 24, 72, and 120 hours
Procedure: The active compound is dissolved at the desired concentration in a mixture of 1:1 (vol:vol) distilled water:acetone. The test solution is prepared at the day of use.
Potted cowpea plants colonized with approximately 100-150 aphids of various stages were sprayed after the pest population has been recorded. Population reduction was assessed after 24, 72, and 120 hours.

[4] = system: Anthonomus grandis; assay: Boll weevil (Anthonomus grandis) egg and larval mortality, microtiter plate insect diet; conditions: 2500 ppm; egg and larval mortality after 5 days
Procedure: For evaluating control of boll weevil (Anthonomus grandis) the test unit consisted of 24-well-microtiter plates containing an insect diet and 20-30 A. grandis eggs.
The compounds were formulated using a solution containing 75% v/v water and 25% v/v DMSO. Different concentrations of formulated compounds were sprayed onto the insect diet at 20 μl, using a custom built micro atomizer, at two replications. After application, microtiter plates were incubated at about 23±1° C. and about 50±5% relative humidity for 5 days. Egg and larval mortality was then visually assessed.

[5] = system: Aphis gossypii; assay: Cotton aphid (Aphis gossypii) I, cotton cotyledon dip; conditions: 300 ppm; after 5 days
Description: The active compounds were formulated in 50:50 (vol:vol) acetone:water and 100 ppm Kinetica™ surfactant.
Cotton plants at the cotyledon stage (one plant per pot) were infested by placing a heavily infested leaf from the main colony on top of each cotyledon. The aphids were allowed to transfer to the host plant overnight, and the leaf used to transfer the aphids was removed. The cotyledons were dipped in the test solution and allowed to dry. After 5 days, mortality counts were made.

[6] = system: Myzus persicae; assay: Green peach aphid (Myzus persicae) II, pepper plant leaf dip; conditions: 300 ppm; after 5 days
Description: The active compounds were formulated in 50:50 acetone:water (vol:vol) and 100 ppm Kinetica™ surfactant.
Pepper plants in the 2nd leaf-pair stage (variety ‘California Wonder’) were infested with approximately 40 laboratory-reared aphids by placing infested leaf sections on top of the test plants. The leaf sections were removed after 24 hr. The leaves of the intact plants were dipped into gradient solutions of the test compound and allowed to dry. Test plants were maintained under fluorescent light (24 hour photoperiod) at about 25° C. and about 20-40% relative humidity. Aphid mortality on the treated plants, relative to mortality on check plants, was determined after 5 days.

[7] = system: Myzus persicae; assay: Green peach aphid (Myzus persicae) I, systemic, artificial diet under membrane; conditions: 300 ppm; after 3 days
Description: For evaluating control of green peach aphid (Myzus persicae) through systemic means the test unit consisted of 96-well-microtiter plates containing liquid artificial diet under an artificial membrane.
The compounds were formulated using a solution containing 75% v/v water and 25% v/v DMSO. Different concentrations of formulated compounds were pipetted into the aphid diet, using a custom built pipetter, at two replications.
After application, 5-8 adult aphids were placed on the artificial membrane inside the microtiter plate wells. The aphids were then allowed to suck on the treated aphid diet and incubated at about 23±1° C. and about 50±5% relative humidity for 3 days. Aphid mortality and fecundity was then visually assessed.

[8] = system: Nephotettix virescens; assay: Rice green leafhopper (Nephotettix virescens), sprayed rice seedlings; conditions: 300 ppm; after 72 hours
Procedure: Rice seedlings were cleaned and washed 24 hours before spraying. The active compounds were formulated in 50:50 acetone:water (vol:vol), and 0.1% vol/vol surfactant (EL 620) was added. Potted rice seedlings were sprayed with 5 ml test solution, air dried, placed in cages and inoculated with 10 adults. Treated rice plants were kept at about 28-29° C. and relative humidity of about 50-60%. Percent mortality was recorded after 72 hours.

| Compound | mortality in comparison with untreated controls [1] | mortality in comparison with untreated controls [3] | mortality in comparison with untreated controls [4] | other results |
| --- | --- | --- | --- | --- |
| CC(c1ccc(Cl)nc1)N(C1CC1)S(C)=NC#N (stereo not shown) [compound 74] | over 75% | – | – | – |
| CC(c1ccc(Cl)nc1)N(C)S(C)(=O)=NC#N (stereo not shown) [compound 67] | over 75% | – | – | – |
| CN(Cc1cnc(Cl)s1)S(C)(=O)=NC#N (stereo not shown) [compound 86] | – | over 75% | – | mortality in comparison with untreated controls [2]: over 75% |
| N#CN=S1CCCN1c1ccc(Br)nc1 (stereo not shown) [compound 48] | – | over 75% | over 75% | – |
| N#CN=S1(=O)CCCCN1Cc1ccc(Cl)nc1 (stereo not shown) [compound 10] | over 75% | over 75% | – | – |
| N#CN=S1(=O)CCCN1c1cncnc1 (stereo not shown) [compound 26] | – | – | – | mortality in comparison with untreated controls [5]: over 75%; mortality in comparison with untreated controls [6]: over 75% |
| CN(Cc1ccc(Cl)nc1)S(C)(=O)=N[N+](=O)[O-] (stereo not shown) [compound 97] | – | over 75% | – | – |
| CC1CN(c2ccc(Cl)nc2)S(=O)(=NC#N)C1 (stereo not shown) [compound 32] | over 75% | – | over 75% | – |
| N#CN=S1(=O)CCCN1c1cccnc1 (stereo not shown) [compound 16] | over 75% | – | over 75% | – |
| CC(c1ccc(Cl)nc1)N(C)S(C)=NC#N (stereo not shown) [compound 73] | over 75% | over 75% | – | – |
| N#CN=S1(=O)CCCN1c1ccc(Cl)nc1 (stereo not shown) [compound 11] | – | – | – | mortality in comparison with untreated controls [7]: over 75% |
| N#CN=S1CCCN1CC1CCOC1 (stereo not shown) [compound 40] | – | – | over 75% | mortality in comparison with untreated controls [8]: over 75% |
| CC(C)C(c1ccc(Cl)nc1)N(C)S(C)=NC#N (stereo not shown) [compound 75] | over 75% | – | – | – |
| N#CN=S1CCCN1c1cccnc1 (stereo not shown) [compound 49] | – | – | over 75% | – |
| CN(C(c1ccc(Cl)nc1)C1CC1)S(C)=NC#N (stereo not shown) [compound 77] | – | – | – | mortality in comparison with untreated controls [2]: over 75% |
| Cc1cc(Cl)ncc1N1CCCS1=NC#N (stereo not shown) [compound 52] | – | over 75% | over 75% | – |
| CC1CN(c2cnc(Cl)c(Cl)c2)S(=O)(=NC#N)C1 (stereo not shown) [compound 33] | over 75% | – | – | – |
| N#CN=S1(=O)CCCN1Cc1ccc(C(F)(F)F)nc1 (stereo not shown) [compound 7] | over 75% | – | – | – |
| N#CN=S1(=O)CCCN1c1ccc(C(F)(F)F)nc1 (stereo not shown) [compound 17] | – | – | – | mortality in comparison with untreated controls [7]: over 75% |
| N#CN=S1CCCN1c1ccc(Cl)nc1 (stereo not shown) [compound 44] | – | over 75% | over 75% | – |
| N#CN=S1CCCN1c1ccc(F)nc1 (stereo not shown) [compound 47] | – | – | over 75% | – |

Reference: patent US8252939B2, “Sulfoximinamide compounds for combating animal pests” (BASF SE, priority 2008, dated 2012)
